Measurements reported in patent US6596498B1 (Osteopharm Inc., priority 1993, dated 2003).

Assay: peptide synthesis
Details: whole synthesis, HPLC

Sequence: GIGKRTNEHTADCKIKPNTLHKKAAETLMVLDQNQP
- purity (crude or final not stated): 99%

Ends that are not written are not given here.
